Data taken from patent US20090119801A1, “Method for preserving cut flowers, cut flower preservation kit, method for manufacturing processed cut flowers, and processed cut flowers” (SUNTORY FLOWERS LIMITED, priority 2007, published 2009).

Experiments:
[1] = system: petals of carnation "Moondust Velvet Blue"; experiment: Immersion of carnation petals in organic solvents: replacement of tissue fluid, leach-out of pigment, contraction (Example 1); conditions: for contraction: contraction of petals; for contraction / replacement: immersed not less than one day; for leach-out of pigment: from amount of pigment remaining in petals, peak at around 540 nm, immersed about one day; for replacement: tissue fluid of petals replaced by the organic solvent
[2] = system: petals of carnation "Moondust Velvet Blue"; experiment: Immersion of carnation petals in candidate preservative solutions: contraction, color tone, color, shine (Example 2); conditions: for color of petals / shine of petal / variation in color tone: non-uniform area / contraction B / variation in color tone: after immersion not less than one day; for variation in color tone: non-uniform area: share of non-uniform area; for suitable as the preservative solution: considering the color of the petals and the like; for contraction A: contraction of petals on immersion in the organic solvent; for contraction B: contraction of petals while the organic solvent was volatilized from the petals; for variation in color tone: result in words

Compound	contraction [1]	leach-out of pigment [1]	replacement [1]	color of petals [2]	shine of petal [2]	variation in color tone: non-uniform area [2]	suitable as the preservative solution [2]	contraction A [2]	contraction B [2]	variation in color tone [2]
CCCC(=O)O [n-butyric acid]	no	no	yes							
CCCCC(CC)COCCO (stereo not drawn) [2-(2-ethylhexyloxy)ethanol]				purple	no	not greater than 20%	suitable	no	no	
OCC(O)CO [glycerin]					yes	not greater than 20%		no	no	
CO [Methanol]	yes	yes	yes							
CC(C)O [2-propanol]	no		yes							
1-propanol	no	no	yes							
CCCCC(CC)COCCOCCO (stereo not drawn) [2-[2-(2-ethylhexyloxy)ethoxy]ethanol]				light purple	yes	not greater than 20%	suitable	no	no	
CCCC(O)C(CC)CO (stereo not drawn) [2-ethyl-1,3-hexanediol]				dark purple	yes		suitable	no	no	uniform color tone
CC(CCO)CCO [3-methyl-1,5-pentanediol]				purple	yes	not greater than 20%	suitable	no	no	
CC(O)CC(C)(C)O (stereo not drawn) [2-methyl-2,4-pentanediol]				dark purple			suitable	no	no	uniform color tone
OCCO [ethylene glycol]					yes	not greater than 20%		no	no	
CC(C)=O [acetone]	no	no	yes							
CCO [ethanol]	no	no	yes							
C1COCCO1 [1,4-dioxane]	no	no	yes							
